# Values from PubChem BioAssay AID1224830 (NIAID, 2016).
# Assay: 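Regulators of TLR4 signalling towards TNF-alpha in macrophage-like cells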 (primary screen)
# Cell system: human THP-1 monocytic leukaemia cells, TNF dual-luciferase reporter clone, PMA-differentiated to macrophage-like cells
# Reagent: siRNA pool against human genes, 50 nM
# Duration: LPS for 4 h, given about 3 days after siRNA transfection
# Challenge: bacterial LPS (TLR4 ligand), 10 ng/ml
# Measured: 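Ratio of firefly to renilla light, scaled to the plate median and expressed as a robust z-score per replicate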
# Direction: TNF reporter robust z-score: higher = stronger TNF reporter response to LPS
# Active means: 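Each well counts as active if its z-score is over 2.8 or under -1.5; controls are left without a call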
# This is a random part of about 18,000 reagents. In the full data, about 2,900 (16%) are marked active. 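Calls are made per well; low scores hint the gene aids the LPS response, high scores that it dampens it.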 Entries without a mark were called inactive. Repeated entries: four replicate wells of each siRNA pool.
The opening 11 records, ahead of the listing:
gene knocked down,TNF reporter robust z-score
PLXNA4 (plexin A4),-0.58
PLXNA4 (plexin A4),0.44
PLXNA4 (plexin A4),0.51
PLXNA4 (plexin A4),0.39
PLXNA4 (plexin A4),3.42 (active)
PLXNA4 (plexin A4),1.44
PLXNA4 (plexin A4),1.22
PLXNA4 (plexin A4),0.47
CHL1 (cell adhesion molecule L1 like),-0.43
CHL1 (cell adhesion molecule L1 like),0.28
CHL1 (cell adhesion molecule L1 like),-0.46

Main list, from the start:
gene knocked down,TNF reporter robust z-score
PLXNA4 (plexin A4),-0.58
PLXNA4 (plexin A4),0.44
PLXNA4 (plexin A4),0.51
PLXNA4 (plexin A4),0.39
PLXNA4 (plexin A4),3.42 (active)
PLXNA4 (plexin A4),1.44
PLXNA4 (plexin A4),1.22
PLXNA4 (plexin A4),0.47
CHL1 (cell adhesion molecule L1 like),-0.43
CHL1 (cell adhesion molecule L1 like),0.28
CHL1 (cell adhesion molecule L1 like),-0.46
CHL1 (cell adhesion molecule L1 like),0.71
"FGD4 (FYVE, RhoGEF and PH domain containing 4)",-0.31
"FGD4 (FYVE, RhoGEF and PH domain containing 4)",-0.15
"FGD4 (FYVE, RhoGEF and PH domain containing 4)",-0.44
"FGD4 (FYVE, RhoGEF and PH domain containing 4)",0.24
ABCA1 (ATP binding cassette subfamily A member 1),-0.5
ABCA1 (ATP binding cassette subfamily A member 1),-0.57
ABCA1 (ATP binding cassette subfamily A member 1),-0.77
ABCA1 (ATP binding cassette subfamily A member 1),-0.08
EXO1 (exonuclease 1),0.74
EXO1 (exonuclease 1),3.9 (active)
EXO1 (exonuclease 1),1.13
EXO1 (exonuclease 1),2.16
SCIMP (SLP adaptor and CSK interacting membrane protein),-0.66
SCIMP (SLP adaptor and CSK interacting membrane protein),1.26
SCIMP (SLP adaptor and CSK interacting membrane protein),1.28
SCIMP (SLP adaptor and CSK interacting membrane protein),0.22
KHDC3L,0.34
KHDC3L,-0.18
KHDC3L,-0.26
KHDC3L,0.23
ASIC4 (acid sensing ion channel subunit family member 4),-0.77
ASIC4 (acid sensing ion channel subunit family member 4),0.32
ASIC4 (acid sensing ion channel subunit family member 4),-0.56
ASIC4 (acid sensing ion channel subunit family member 4),-0.15
ENSA (endosulfine alpha),-1.71 (active)
ENSA (endosulfine alpha),-1.3
ENSA (endosulfine alpha),-0.83
ENSA (endosulfine alpha),-1.15
DGKE (diacylglycerol kinase epsilon),-1.22
DGKE (diacylglycerol kinase epsilon),-1.01
DGKE (diacylglycerol kinase epsilon),-0.94
DGKE (diacylglycerol kinase epsilon),-0.74
"POLR2K (RNA polymerase II, I and III subunit K)",0
"POLR2K (RNA polymerase II, I and III subunit K)",0.06
"POLR2K (RNA polymerase II, I and III subunit K)",-0.2
"POLR2K (RNA polymerase II, I and III subunit K)",-0.35
TMEM132E (transmembrane protein 132E),-0.31
TMEM132E (transmembrane protein 132E),0.54
TMEM132E (transmembrane protein 132E),-0.27
TMEM132E (transmembrane protein 132E),-0.28
"PPM1N (protein phosphatase, Mg2+/Mn2+ dependent 1N (putative))",2.95 (active)
"PPM1N (protein phosphatase, Mg2+/Mn2+ dependent 1N (putative))",1.41
"PPM1N (protein phosphatase, Mg2+/Mn2+ dependent 1N (putative))",1.46
"PPM1N (protein phosphatase, Mg2+/Mn2+ dependent 1N (putative))",0.68
CFAP68 (cilia and flagella associated protein 68),-0.82
CFAP68 (cilia and flagella associated protein 68),0.03
CFAP68 (cilia and flagella associated protein 68),-0.59
CFAP68 (cilia and flagella associated protein 68),1.05
BCR (BCR activator of RhoGEF and GTPase),1.68
BCR (BCR activator of RhoGEF and GTPase),1.61
BCR (BCR activator of RhoGEF and GTPase),0.7
BCR (BCR activator of RhoGEF and GTPase),-0.5
CSDE1 (cold shock domain containing E1),1.58
CSDE1 (cold shock domain containing E1),0.05
CSDE1 (cold shock domain containing E1),0.08
CSDE1 (cold shock domain containing E1),0.99
GAK (cyclin G associated kinase),-0.55
GAK (cyclin G associated kinase),-0.06
GAK (cyclin G associated kinase),0.83
GAK (cyclin G associated kinase),-0.56
MTHFR (methylenetetrahydrofolate reductase),-0.32
MTHFR (methylenetetrahydrofolate reductase),0.11
MTHFR (methylenetetrahydrofolate reductase),-0.48
MTHFR (methylenetetrahydrofolate reductase),0.33
FHIP2B (FHF complex subunit HOOK interacting protein 2B),-0.1
FHIP2B (FHF complex subunit HOOK interacting protein 2B),-0.68
FHIP2B (FHF complex subunit HOOK interacting protein 2B),-0.03
FHIP2B (FHF complex subunit HOOK interacting protein 2B),1.02
TAAR9 (trace amine associated receptor 9),-1.29
TAAR9 (trace amine associated receptor 9),-0.19
TAAR9 (trace amine associated receptor 9),-0.79
TAAR9 (trace amine associated receptor 9),-0.37
FZD1 (frizzled class receptor 1),1.12
FZD1 (frizzled class receptor 1),0.89
FZD1 (frizzled class receptor 1),0.15
FZD1 (frizzled class receptor 1),0.84
RPL10L (ribosomal protein L10 like),0.32
RPL10L (ribosomal protein L10 like),-0.19
RPL10L (ribosomal protein L10 like),-0.3
RPL10L (ribosomal protein L10 like),-0.02
ACTR3 (actin related protein 3),-0.08
ACTR3 (actin related protein 3),0
ACTR3 (actin related protein 3),0.49
ACTR3 (actin related protein 3),0.03
TFRC (transferrin receptor),-0.26
TFRC (transferrin receptor),0.07
TFRC (transferrin receptor),-0.62
TFRC (transferrin receptor),0.7
TMPRSS11F (transmembrane serine protease 11F),1.33
TMPRSS11F (transmembrane serine protease 11F),0.3
TMPRSS11F (transmembrane serine protease 11F),0.24
TMPRSS11F (transmembrane serine protease 11F),1.27
MAN1A1 (mannosidase alpha class 1A member 1),-0.53
MAN1A1 (mannosidase alpha class 1A member 1),-0.38
MAN1A1 (mannosidase alpha class 1A member 1),-0.84
MAN1A1 (mannosidase alpha class 1A member 1),-0.04
ANAPC2 (anaphase promoting complex subunit 2),0.4
ANAPC2 (anaphase promoting complex subunit 2),0.95
ANAPC2 (anaphase promoting complex subunit 2),0.64
ANAPC2 (anaphase promoting complex subunit 2),1.16
BMP5 (bone morphogenetic protein 5),0.44
BMP5 (bone morphogenetic protein 5),0.41
BMP5 (bone morphogenetic protein 5),0.02
BMP5 (bone morphogenetic protein 5),0.19
ANO1 (anoctamin 1),-0.55
ANO1 (anoctamin 1),-0.66
ANO1 (anoctamin 1),-1.34
ANO1 (anoctamin 1),-0.32
LIN7A (lin-7 cell polarity scaffold A),3.16 (active)
LIN7A (lin-7 cell polarity scaffold A),4.07 (active)
LIN7A (lin-7 cell polarity scaffold A),0.64
LIN7A (lin-7 cell polarity scaffold A),1.6
ENPEP (glutamyl aminopeptidase),0.09
ENPEP (glutamyl aminopeptidase),-0.1
ENPEP (glutamyl aminopeptidase),-0.68
ENPEP (glutamyl aminopeptidase),0.83
ATP6V1A (ATPase H+ transporting V1 subunit A),-0.41
ATP6V1A (ATPase H+ transporting V1 subunit A),-0.27
ATP6V1A (ATPase H+ transporting V1 subunit A),-1.1
ATP6V1A (ATPase H+ transporting V1 subunit A),-0.2
"CLN3 (CLN3 lysosomal/endosomal transmembrane protein, battenin)",-0.86
"CLN3 (CLN3 lysosomal/endosomal transmembrane protein, battenin)",0.67
"CLN3 (CLN3 lysosomal/endosomal transmembrane protein, battenin)",0.5
"CLN3 (CLN3 lysosomal/endosomal transmembrane protein, battenin)",-0.07
SPI1 (Spi-1 proto-oncogene),-2.38 (active)
SPI1 (Spi-1 proto-oncogene),-2.39 (active)
SPI1 (Spi-1 proto-oncogene),-2.45 (active)
SPI1 (Spi-1 proto-oncogene),-2.35 (active)
